Laboratory results reported in publication PMC9505565.
These are yes or no findings as the source states them, for the method shown. Binding seen in cells or lysates may run through a third protein. Some binding calls cover weakened binding; strength is not graded here.

Molecular target: T1, triggering receptor expressed on myeloid cells 2 (TREM2) (mouse (endogenous in mouse brain)) (UniProt Q99NH8)
T1 sequence: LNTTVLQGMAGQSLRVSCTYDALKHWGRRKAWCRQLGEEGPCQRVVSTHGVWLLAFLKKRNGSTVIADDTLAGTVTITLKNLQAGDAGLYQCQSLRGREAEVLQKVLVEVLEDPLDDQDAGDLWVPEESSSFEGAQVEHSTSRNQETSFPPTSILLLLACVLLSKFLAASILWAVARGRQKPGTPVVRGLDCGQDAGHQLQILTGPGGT
Test: co-IP; brain tissue lysates (RIPA buffer) of WT, flox-Jak3 and IEC-Jak3-KO mice fed normal diet or high-fat diet; 1 ug IP antibody overnight at 4 C, Protein A Sepharose 1 h at 4 C, four washes, immunoblot; rabbit IgG and Jak3-KO brain as controls

binding: binds
B1: Janus kinase-3 (Jak3) (enzyme, UniProt Q62137 1-1100)
chain: MAPPSEETPLIPQRSCSLSSSEAGALHVLLPPRGPGPPQRLSFSFGDYLAEDLCVRAAKACGILPVYHSLFALATEDFSCWFPPSHIFCIEDVDTQVLVYRLRFYFPDWFGLETCHRFGLRKDLTSAILDLHVLEHLFAQHRSDLVSGRLPVGLSMKEQGEFLSLAVLDLAQMAREQAQRPGELLKTVSYKACLPPSLRDVIQGQNFVTRRRIRRTVVLALRRVVACQADRYALMAKYILDLERLHPAATTETFRVGLPGAQEEPGLLRVAGDNGISWSSGDQELFQTFCDFPEIVDVSIKQAPRVGPAGEHRLVTVTRMDGHILEAEFPGLPEALSFVALVDGYFRLICDSRHYFCKEVAPPRLLEEEAELCHGPITLDFAIHKLKAAGSLPGTYILRRSPQDYDSFLLTACVQTPLGPDYKGCLIRQDPSGAFSLVGLSQPHRSLRELLAACWNSGLRVDGAALNLTSCCAPRPKEKSNLIVVRRGCTPAPAPGCSPSCCALTQLSFHTIPTDSLEWHENLGHGSFTKIFRGRRREVVDGETHDSEVLLKVMDSRHRNCMESFLEAASLMSQVSYPHLVLLHGVCMAGDSIMVQEFVYLGAIDMYLRKRGHLVSASWKLQVTKQLAYALNYLEDKGLPHGNVSARKVLLAREGGDGNPPFIKLSDPGVSPTVLSLEMLTDRIPWVAPECLQEAQTLCLEADKWGFGATTWEVFSGGPAHITSLEPAKKLKFYEDQGQLPALKWTELAGLITQCMAYDPGRRPSFRAILRDLNGLITSDYELLSDPTPGIPSPRDELCGGAQLYACQDPAIFEERHLKYISLLGKGNFGSVELCRYDPLGDNTGPLVAVKQLQHSGPDQQRDFQREIQILKALHSDFIVKYRGVSYGPGRQSLRLVMEYLPSGCLRDFLQRHRARLHTDRLLLFAWQICKGMEYLGARRCVHRDLAARNILVESEAHVKIADFGLAKLLPLGKDYYVVREPGQSPIFWYAPESLSDNIFSRQSDVWSFGVVLYELFTYCDKSCSPSAEFLRMMGPEREGPPLCRLLELLAEGRRLPPPPTCPTEVQELMQLCWAPSPHDRPAFGTLSPQLDALWRGRPG
